The source of these data is PubChem BioAssay AID200 (DTP/NCI, 2004).

The list shows only some results of the screen, not a fair sample: it gathers tests that were run many times, whatever their T/C, doses with no T/C, and many T/C values between a quarter and a half above the control. Other doses and runs of a compound stand elsewhere. T/C is the treated group as % of the vehicle group. Some doses have a count of surviving animals in place of a T/C: the source files T/C as zero there, which appears to mark a toxic dose or a test without result, not a measured value. Some survivor counts are full or nearly so, which does not show that the dose was tolerated: survival well below the control is almost never listed, so the zero probably covers shortened survival too. Counts of survivors are from the toxicity check (mostly the fifth day) where no day follows; animals may have died later. Schedule codes are those of the source, taken here to give the interval after Q, in days (D) or hours (H), and the number of doses after X. Some doses were run more than once; the values are given in rising order. Where survival is the endpoint, the PubChem record calls one and a half times the control and up active, and a quarter to a half above the control has no call in these data; cut-offs in other NCI protocols can differ. Some T/C values carry the count of animals alive at the toxicity check (mostly the fifth day); without a count, all were alive then. Where a SMILES comes first, the peptide text is derived from it.

This test deals with B6C3F1 mice, B16 melanoma ip, median survival T/C. The experiment in a line: NCI In Vivo Anticancer Drug Screen. Data for tumor model B16 Melanoma (intraperitoneal) in B6C3F1 mice. The settings on record: T/C endpoint: median survival time, higher T/C = longer survival. The method, boiled down:
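Values are T/C ratios: the measurement in treated animals divided by that in vehicle-treated controls, using survival or tumor size in mice carrying transplantable tumors.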

Setting [1] is: dose: 6.0 mg/kg/injection, schedule: Q01DX009 (ip), vehicle: Klucel (hydroxypropylcellulose) (HPC).
Setting [2] is: dose: 400.0 mg/kg/injection, schedule: Q01DX009 (ip), vehicle: saline.
Setting [3] is: dose: 200.0 mg/kg/injection, schedule: Q01DX009 (ip), vehicle: saline.
[4] abbreviates: dose: 400.0 mg/kg/injection, schedule: Q01DX009 (ip), vehicle: Klucel (hydroxypropylcellulose) (HPC).
[5] abbreviates: dose: 2.0 mg/kg/injection, schedule: Q01DX009 (ip), vehicle: saline.
The mark [6] stands for this setting: dose: 16.0 mg/kg/injection, schedule: Q01DX009 (ip), vehicle: saline.
Where [7] appears, read: dose: 50.0 mg/kg/injection, schedule: Q01DX009 (ip), vehicle: acid diluted with saline.

As to `C=C1C(C)C2C(Cc3ccccc3)NC(=O)C23C(OC(C)=O)/C=C/C(C)(O)CC(C)C/C=C/C3C1O` (configuration not stated), the T/C under setting [1] was 146 % of control. The survivor count reads like this: under setting [1], 5 of 10; (dose: 12.0 mg/kg/injection, schedule: Q01DX009 (ip), vehicle: Klucel (hydroxypropylcellulose) (HPC)) 3 of 10; (dose: 12.5 mg/kg/injection, schedule: Q01DX009 (ip), vehicle: Klucel (hydroxypropylcellulose) (HPC)) 7 of 10; (dose: 12.5 mg/kg/injection, schedule: Q01DX009 (ip), vehicle: saline with Tween-80) 0 of 10; (dose: 25.0 mg/kg/injection, schedule: Q01DX009 (ip), vehicle: Klucel (hydroxypropylcellulose) (HPC)) 0 of 10; (dose: 50.0 mg/kg/injection, schedule: Q01DX009 (ip), vehicle: Klucel (hydroxypropylcellulose) (HPC)) 0 of 10.
Take `NCC(=O)NC(Cc1ccc(O)cc1)C(=O)O` (configuration not stated) (HELM PEPTIDE1{G.[O=C(O)C(Cc1ccc(O)cc1)N[*:1]]}$$$$V2.0): under setting [2], the T/C is 125 % of control.
On to `C[N+](C)(C)c1ncnc2nc[nH]c12`, for which the survivor count by setting is: under setting [3], 7 of 10; under setting [2], 0 of 10.
In the case of `Cc1c(N)nc([C@H](CC(N)=O)NC[C@H](N)C(N)=O)nc1C(=O)N[C@H](C(=O)N[C@H](C)[C@@H](O)CC(=O)N[C@H](C(=O)NC(O[C@@H]1O[C@@H](C)[C@@H](N)[C@@H](O)[C@H]1O)C(O)c1nc(-c2nc(C(=O)NCCCCN)cs2)cs1)[C@@H](C)O)[C@@H](O[C@@H]1O[C@@H](CO)[C@@H](O)[C@H](O)[C@@H]1O[C@H]1O[C@H](CO)[C@@H](O)[C@H](OC(N)=O)[C@@H]1O)c1c[nH]cn1` (some centres not stated), the T/C runs as follows: (dose: 0.8 mg/kg/injection, schedule: Q01DX009 (ip), vehicle: saline) 137 % of control; (dose: 1.6 mg/kg/injection, schedule: Q01DX009 (ip), vehicle: saline) 144 % of control; (dose: 3.2 mg/kg/injection, schedule: Q01DX009 (ip), vehicle: saline) 138 % of control.
For the molecule `CNc1nc(NC)nc(NC)n1`, the survivor count by setting is: (dose: 200.0 mg/kg/injection, schedule: Q01DX009 (ip), vehicle: Klucel (hydroxypropylcellulose) (HPC)) 9 of 10; under setting [4], 0 of 10.
For the molecule `NS(=O)(=O)c1cc2c(cc1Cl)NC=NS2(=O)=O`, the survivor count (dose: 600.0 mg/kg/injection, schedule: Q01DX009 (ip), vehicle: Klucel (hydroxypropylcellulose) (HPC)) was 10 of 10.
On to `Cc1ccc(C(=Nc2ccccc2)N=P(c2ccccc2)(c2ccccc2)c2ccccc2)cc1`, for which the survivor count is reported as 4 of 10 (dose: 100.0 mg/kg/injection, schedule: Q01DX009 (ip), vehicle: saline with Tween-80) and 1 of 10 (dose: 200.0 mg/kg/injection, schedule: Q01DX009 (ip), vehicle: saline with Tween-80).
As to `O=C(O)C1CCCN1C(=O)OCC1c2ccccc2-c2ccccc21` (configuration not stated), the survivor count under setting [4] is given as 2 of 10.
Take `CC1OC1C(=O)C1(O)C(C)C(O)C23OC2(C(O)c2c(O)cccc2C3=O)C1O` (configuration not stated): the T/C reads like this: (dose: 0.5 mg/kg/injection, schedule: Q01DX009 (ip), vehicle: Klucel (hydroxypropylcellulose) (HPC), evaluated on day 50) 99 % of control; (dose: 0.5 mg/kg/injection, schedule: Q01DX009 (ip), vehicle: Klucel (hydroxypropylcellulose) (HPC), evaluated on day 60) 88 and 89 % of control; (dose: 1.0 mg/kg/injection, schedule: Q01DX009 (ip), vehicle: Klucel (hydroxypropylcellulose) (HPC), evaluated on day 50) 107 % of control; (dose: 1.0 mg/kg/injection, schedule: Q01DX009 (ip), vehicle: Klucel (hydroxypropylcellulose) (HPC), evaluated on day 60) 95 % of control; (dose: 2.0 mg/kg/injection, schedule: Q01DX009 (ip), vehicle: Klucel (hydroxypropylcellulose) (HPC), evaluated on day 50) 111 % of control [9 of 10 alive]; (dose: 2.0 mg/kg/injection, schedule: Q01DX009 (ip), vehicle: Klucel (hydroxypropylcellulose) (HPC), evaluated on day 60) 102 % of control. In addition, the T/C is, setting by setting: (dose: 4.0 mg/kg/injection, schedule: Q01DX009 (ip), vehicle: Klucel (hydroxypropylcellulose) (HPC), evaluated on day 50) 119 % of control; (dose: 4.0 mg/kg/injection, schedule: Q01DX009 (ip), vehicle: Klucel (hydroxypropylcellulose) (HPC), evaluated on day 60) 106 and 108 % of control; (dose: 8.0 mg/kg/injection, schedule: Q01DX009 (ip), vehicle: Klucel (hydroxypropylcellulose) (HPC), evaluated on day 50) 123 % of control; (dose: 8.0 mg/kg/injection, schedule: Q01DX009 (ip), vehicle: Klucel (hydroxypropylcellulose) (HPC), evaluated on day 60) 113 and 135 % of control. In addition, the survivor count reads like this: (dose: 1.0 mg/kg/injection, schedule: Q01DX009 (ip), vehicle: Klucel (hydroxypropylcellulose) (HPC)) 10 of 10; (dose: 2.0 mg/kg/injection, schedule: Q01DX009 (ip), vehicle: Klucel (hydroxypropylcellulose) (HPC)) 10 of 10; (dose: 16.0 mg/kg/injection, schedule: Q01DX009 (ip), vehicle: Klucel (hydroxypropylcellulose) (HPC)) 7 of 10, 9 of 10, 10 of 10.
Turning to `COC12C(COC(N)=O)C3=C(C(=O)C(C)=C(N)C3=O)N1CC1C2N1C` (configuration not stated), the T/C under setting [5] was 129 % of control. The survivor count under setting [6] is 10 of 10.
With `CC(C)CC(C(=O)O)N(C)C(=O)OC(C)(C)C` (configuration not stated), the survivor count under setting [4] is 10 of 10.
As to `[Cl][Hg][Cl]`, the survivor count by setting is: (dose: 1.0 mg/kg/injection, schedule: Q01DX009 (ip), vehicle: saline) 10 of 10; under setting [5], 9 of 10 and 10 of 10; (dose: 4.0 mg/kg/injection, schedule: Q01DX009 (ip), vehicle: saline) 10 of 10; (dose: 8.0 mg/kg/injection, schedule: Q01DX009 (ip), vehicle: saline) 0 of 10; under setting [6], 0 of 10; (dose: 32.0 mg/kg/injection, schedule: Q01DX009 (ip), vehicle: saline) 0 of 10.
Take `COC(C(=O)C(O)C(C)O)C1Cc2cc3cc(OC4CC(OC(C)=O)C(OC5CC(O)C(OC)C(C)O5)C(C)O4)cc(O)c3c(O)c2C(=O)C1OC1CC(OC2CC(OC3CC(C)(O)C(OC(=O)C(C)C)C(C)O3)C(O)C(C)O2)C(O)C(C)O1` (configuration not stated): the T/C is, setting by setting: (dose: 0.12 mg/kg/injection, schedule: Q01DX009 (ip), vehicle: saline with Tween-80) 125 % of control; (dose: 0.25 mg/kg/injection, schedule: Q01DX009 (ip), vehicle: saline with Tween-80) 131 % of control.
Regarding `O=C1c2cccc(NCCCNCCO)c2C(=O)c2cccc(NCCCNCCO)c21`, the survivor count is, setting by setting: (dose: 6.25 mg/kg/injection, schedule: Q01DX009 (ip), vehicle: acid diluted with saline) 10 of 10; under setting [7], 10 of 10; (dose: 100.0 mg/kg/injection, schedule: Q01DX009 (ip), vehicle: acid diluted with saline) 3 of 10. In addition, the T/C (dose: 12.5 mg/kg/injection, schedule: Q01DX009 (ip), vehicle: acid diluted with saline) was 127 % of control [9 of 10 alive]; the T/C (dose: 25.0 mg/kg/injection, schedule: Q01DX009 (ip), vehicle: acid diluted with saline) was 135 % of control; the T/C under setting [7] was 138 % of control [9 of 10 alive].
On to `CCC1OC(OC)C=CC1=O` (configuration not stated), for which the survivor count runs as follows: (dose: 100.0 mg/kg/injection, schedule: Q01DX009 (ip), vehicle: saline) 0 of 10; under setting [3], 0 of 10.
`CC(C)CCCCCCCCCCCCC(=O)NCC(=O)NC1C(C)OC(Nc2ncnc3nc[nH]c23)C(O)C1O` (configuration not stated): the T/C by setting is: (dose: 1.0 mg/kg/injection, schedule: Q01DX009 (ip), vehicle: distilled water + Tween-80) 126 % of control; (dose: 2.0 mg/kg/injection, schedule: Q01DX009 (ip), vehicle: distilled water + Tween-80) 141 % of control; (dose: 4.0 mg/kg/injection, schedule: Q01DX008 (ip), vehicle: distilled water + Tween-80) 130 % of control; (dose: 4.0 mg/kg/injection, schedule: Q01DX009 (ip), vehicle: distilled water + Tween-80) 126 % of control. Moreover, the survivor count is on record as 9 of 10 (dose: 8.0 mg/kg/injection, schedule: Q01DX008 (ip), vehicle: distilled water + Tween-80) and 10 of 10 (dose: 8.0 mg/kg/injection, schedule: Q01DX009 (ip), vehicle: distilled water + Tween-80).
